Test results reported in PMC11926914.
Results are given in words; binding and its absence hold for the method and conditions named. For part of these data: In cells and extracts the contact can be indirect. Some results given as binding are weak or reduced against the parent protein; the word gives no strength. Each block holds one molecule with its values, some of them ahead of it.

Amino acid sequences for entries named in this document (tags omitted).
UniProt P42224: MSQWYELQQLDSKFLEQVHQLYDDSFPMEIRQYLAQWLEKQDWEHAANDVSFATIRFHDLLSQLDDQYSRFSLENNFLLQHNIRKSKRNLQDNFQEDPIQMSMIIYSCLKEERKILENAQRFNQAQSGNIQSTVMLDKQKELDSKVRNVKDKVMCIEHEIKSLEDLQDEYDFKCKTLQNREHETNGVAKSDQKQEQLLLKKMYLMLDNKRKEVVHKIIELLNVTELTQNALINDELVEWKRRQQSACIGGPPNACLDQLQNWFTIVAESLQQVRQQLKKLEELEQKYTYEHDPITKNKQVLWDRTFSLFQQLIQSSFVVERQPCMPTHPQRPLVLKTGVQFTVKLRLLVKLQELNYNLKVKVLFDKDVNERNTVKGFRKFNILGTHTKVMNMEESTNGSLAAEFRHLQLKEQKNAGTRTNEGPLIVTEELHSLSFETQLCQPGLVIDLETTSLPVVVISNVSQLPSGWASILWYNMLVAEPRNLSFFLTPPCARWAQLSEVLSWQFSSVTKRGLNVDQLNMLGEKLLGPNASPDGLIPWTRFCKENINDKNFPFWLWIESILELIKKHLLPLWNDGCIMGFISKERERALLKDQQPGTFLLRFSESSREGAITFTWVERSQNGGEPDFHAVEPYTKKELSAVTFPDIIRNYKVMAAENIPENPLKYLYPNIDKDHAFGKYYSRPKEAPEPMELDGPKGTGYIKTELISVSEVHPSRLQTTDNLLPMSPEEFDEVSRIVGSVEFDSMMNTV
UniProt P29350: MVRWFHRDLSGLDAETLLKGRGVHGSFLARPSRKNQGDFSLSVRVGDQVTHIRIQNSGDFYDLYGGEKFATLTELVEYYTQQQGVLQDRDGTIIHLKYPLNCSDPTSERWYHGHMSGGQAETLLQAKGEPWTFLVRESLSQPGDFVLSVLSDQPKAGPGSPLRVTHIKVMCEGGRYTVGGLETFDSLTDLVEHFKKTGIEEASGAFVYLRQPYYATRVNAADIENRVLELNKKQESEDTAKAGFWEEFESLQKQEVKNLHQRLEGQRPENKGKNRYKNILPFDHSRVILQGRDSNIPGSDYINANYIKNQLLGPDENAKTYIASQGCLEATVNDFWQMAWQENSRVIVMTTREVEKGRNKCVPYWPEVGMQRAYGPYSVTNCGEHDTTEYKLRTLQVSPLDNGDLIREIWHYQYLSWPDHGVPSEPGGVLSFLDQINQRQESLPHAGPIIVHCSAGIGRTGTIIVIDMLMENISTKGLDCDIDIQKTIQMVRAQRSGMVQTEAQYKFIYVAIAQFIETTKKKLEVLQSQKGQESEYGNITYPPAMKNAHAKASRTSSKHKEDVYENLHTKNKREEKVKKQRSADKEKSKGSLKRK

Columns and labels:
[1] = biological target: signal transducer and activator of transcription 1 (STAT1), endogenous in HT29 and HCT116 cells (human (endogenous in HT29 and HCT116)) (UniProt P42224); assay: co-IP; HT29 and HCT116 cells treated with 2000 U/mL human IFN-α for 48 h or untreated; lysates immunoprecipitated with anti-STAT1 antibody, western blot
[2] = biological target: signal transducer and activator of transcription 1 (STAT1) protein used in biolayer interferometry (UniProt P42224); assay: BLI; kinetic interactions of RIG-I and the STAT1 protein, in vitro; which partner was immobilised and the conditions are not stated; both purified

binding [1]: binds
Molecule: SHP1, endogenous in HT29 and HCT116 cells (from UniProt P29350 1-595)

binding [2]: binds
B1: Retinoic acid‐inducible gene I (RIG‐I) protein used in biolayer interferometry (protein, UniProt O95786 1-925)
chain: MTTEQRRSLQAFQDYIRKTLDPTYILSYMAPWFREEEVQYIQAEKNNKGPMEAATLFLKFLLELQEEGWFRGFLDALDHAGYSGLYEAIESWDFKKIEKLEEYRLLLKRLQPEFKTRIIPTDIISDLSECLINQECEEILQICSTKGMMAGAEKLVECLLRSDKENWPKTLKLALEKERNKFSELWIVEKGIKDVETEDLEDKMETSDIQIFYQEDPECQNLSENSCPPSEVSDTNLYSPFKPRNYQLELALPAMKGKNTIICAPTGCGKTFVSLLICEHHLKKFPQGQKGKVVFFANQIPVYEQQKSVFSKYFERHGYRVTGISGATAENVPVEQIVENNDIIILTPQILVNNLKKGTIPSLSIFTLMIFDECHNTSKQHPYNMIMFNYLDQKLGGSSGPLPQVIGLTASVGVGDAKNTDEALDYICKLCASLDASVIATVKHNLEELEQVVYKPQKFFRKVESRISDKFKYIIAQLMRDTESLAKRICKDLENLSQIQNREFGTQKYEQWIVTVQKACMVFQMPDKDEESRICKALFLYTSHLRKYNDALIISEHARMKDALDYLKDFFSNVRAAGFDEIEQDLTQRFEEKLQELESVSRDPSNENPKLEDLCFILQEEYHLNPETITILFVKTRALVDALKNWIEGNPKLSFLKPGILTGRGKTNQNTGMTLPAQKCILDAFKASGDHNILIATSVADEGIDIAQCNLVILYEYVGNVIKMIQTRGRGRARGSKCFLLTSNAGVIEKEQINMYKEKMMNDSILRLQTWDEAVFREKILHIQTHEKFIRDSQEKPKPVPDKENKKLLCRKCKALACYTADVRVIEECHYTVLGDAFKECFVSRPHPKPKQFSSFEKRAKIFCARQNCSHDWGIHVKYKTFEIPVIKIESFVVEDIATGVQTLYSKWKDFHFEKIPFDPAEMSK

binding [1]: binds
B2: Retinoic acid‐inducible gene I (RIG‐I), endogenous in HT29 and HCT116 cells (protein, UniProt O95786 1-925)
chain: B1 chain
